# Results: the supplement of paper PMC8728848
# This is one part of the list.
# Key:
# Experiment in all cases: glycan array binding signal (z-score within array); higher = stronger binding
# Conditions in all cases: glycan notation: IUPAC condensed, linker removed
# [1] = target: Gal(b1-4)GlcNAc(b1-3)Gal(b1-4)GlcNAc(b1-3)Gal(b1-4)GlcNAc(b1-3)Gal(b1-4)GlcNAc(b1-2)Man(a1-3)[Gal(b1-4)GlcNAc(b1-3)Gal(b1-4)GlcNAc(b1-3)Gal(b1-4)GlcNAc(b1-3)Gal(b1-4)GlcNAc(b1-2)Man(a1-6)]Man(b1-4)GlcNAc(b1-4)GlcNAc
# How it was run: (§1)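 Arrays were curated from the Consortium for Functional Glycomics database, 3228 in total, and kept only where the protein sequence was available. Binding is expressed as a within-array Z-score. This score was averaged across arrays of the same protein sequence at different concentrations or buffers and across linkers, and negative values can be read as non-binding.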
# [2] = target: Gal(b1-4)GlcNAc(b1-3)Gal(b1-4)GlcNAc(b1-3)Gal(b1-4)GlcNAc(b1-3)Gal(b1-4)GlcNAc(b1-2)Man(a1-3)[Gal(b1-4)GlcNAc(b1-3)Gal(b1-4)GlcNAc(b1-3)Gal(b1-4)GlcNAc(b1-3)Gal(b1-4)GlcNAc(b1-2)Man(a1-6)]Man(b1-4)GlcNAc(b1-4)[Fuc(a1-6)]GlcNAc
# How it was run: as §1
# [3] = target: Gal(b1-4)GlcNAc(b1-3)Gal(b1-4)GlcNAc(b1-3)Gal(b1-4)GlcNAc(b1-3)Gal(b1-4)GlcNAc(b1-2)[Gal(b1-4)GlcNAc(b1-3)Gal(b1-4)GlcNAc(b1-3)Gal(b1-4)GlcNAc(b1-3)Gal(b1-4)GlcNAc(b1-6)]Man(a1-6)[Gal(b1-4)GlcNAc(b1-3)Gal(b1-4)GlcNAc(b1-3)Gal(b1-4)GlcNAc(b1-3)Gal(b1-4)GlcNAc(b1-2)Man(a1-3)]Man(b1-4)GlcNAc(b1-4)[Fuc(a1-6)]GlcNAc
# How it was run: as §1
# [4] = target: Gal(b1-4)GlcNAc(b1-3)Gal(b1-4)GlcNAc(b1-3)Gal(b1-4)GlcNAc(b1-3)Gal(b1-4)GlcNAc(b1-3)Gal(b1-4)GlcNAc(b1-2)Man(a1-3)[Gal(b1-4)GlcNAc(b1-3)Gal(b1-4)GlcNAc(b1-3)Gal(b1-4)GlcNAc(b1-3)Gal(b1-4)GlcNAc(b1-3)Gal(b1-4)GlcNAc(b1-2)Man(a1-6)]Man(b1-4)GlcNAc(b1-4)GlcNAc
# How it was run: as §1
# [5] = target: Gal(b1-4)GlcNAc(b1-3)Gal(b1-4)GlcNAc(b1-3)Gal(b1-4)GlcNAc(b1-3)Gal(b1-4)GlcNAc(b1-3)Gal(b1-4)GlcNAc(b1-2)Man(a1-3)[Gal(b1-4)GlcNAc(b1-3)Gal(b1-4)GlcNAc(b1-3)Gal(b1-4)GlcNAc(b1-3)Gal(b1-4)GlcNAc(b1-3)Gal(b1-4)GlcNAc(b1-2)Man(a1-6)]Man(b1-4)GlcNAc(b1-4)[Fuc(a1-6)]GlcNAc
# How it was run: as §1
# [6] = target: Gal(b1-4)GlcNAc(b1-3)Gal(b1-4)GlcNAc(b1-3)Gal(b1-4)GlcNAc(b1-3)Gal(b1-4)GlcNAc(b1-3)Gal(b1-4)GlcNAc(b1-2)[Gal(b1-4)GlcNAc(b1-3)Gal(b1-4)GlcNAc(b1-3)Gal(b1-4)GlcNAc(b1-3)Gal(b1-4)GlcNAc(b1-3)Gal(b1-4)GlcNAc(b1-6)]Man(a1-6)[Gal(b1-4)GlcNAc(b1-3)Gal(b1-4)GlcNAc(b1-3)Gal(b1-4)GlcNAc(b1-3)Gal(b1-4)GlcNAc(b1-3)Gal(b1-4)GlcNAc(b1-2)Man(a1-3)]Man(b1-4)GlcNAc(b1-4)[Fuc(a1-6)]GlcNAc
# How it was run: as §1
# [7] = target: Gal(b1-4)GlcNAc(b1-3)Gal(b1-4)GlcNAc(b1-3)Gal(b1-4)GlcNAc(b1-3)Gal(b1-4)GlcNAc(b1-3)Gal(b1-4)GlcNAc(b1-3)Gal(b1-4)GlcNAc(b1-2)Man(a1-3)[Gal(b1-4)GlcNAc(b1-3)Gal(b1-4)GlcNAc(b1-3)Gal(b1-4)GlcNAc(b1-3)Gal(b1-4)GlcNAc(b1-3)Gal(b1-4)GlcNAc(b1-3)Gal(b1-4)GlcNAc(b1-2)Man(a1-6)]Man(b1-4)GlcNAc(b1-4)GlcNAc
# How it was run: as §1
# [8] = target: Gal(b1-4)GlcNAc(b1-3)Gal(b1-4)GlcNAc(b1-3)GalNAc
# How it was run: as §1
# [9] = target: Gal(b1-4)GlcNAc(b1-3)Gal(b1-4)GlcNAc(b1-3)[Gal(b1-4)GlcNAc(b1-3)Gal(b1-4)GlcNAc(b1-6)]GalNAc
# How it was run: as §1
# [10] = target: Gal(b1-4)GlcNAc(b1-3)Gal(b1-4)GlcNAc(b1-6)[Gal(b1-3)]GalNAc
# How it was run: as §1
# [11] = target: Gal(b1-4)GlcNAc(b1-3)Gal(b1-4)[Fuc(a1-3)]GlcNAc(b1-3)Gal(b1-4)[Fuc(a1-3)]GlcNAc
# How it was run: as §1
# [12] = target: Gal(b1-4)GlcNAc(b1-3)GalNAc
# How it was run: as §1
# [13] = target: Gal(b1-4)GlcNAc(b1-3)[Fuc(a1-3)GlcNAc(b1-6)]Gal(b1-4)Glc
# How it was run: as §1
# [14] = target: Gal(b1-4)GlcNAc(b1-3)[Gal(b1-4)GlcNAc(b1-6)]Gal(b1-4)GlcNAc
# How it was run: as §1
# [15] = target: Gal(b1-4)GlcNAc(b1-3)[GlcNAc(b1-6)]Gal(b1-4)GlcNAc
# How it was run: as §1
# [16] = target: Gal(b1-4)GlcNAc(b1-6)Gal(b1-4)GlcNAc
# How it was run: as §1
# [17] = target: Gal(b1-4)GlcNAc(b1-6)GalNAc
# How it was run: as §1
# [18] = target: Gal(b1-4)GlcNAc(b1-6)[Gal(b1-3)]GalNAc
# How it was run: as §1
# [19] = target: Gal(b1-4)GlcNAc(b1-6)[Gal(b1-4)GlcNAc(b1-3)]GalNAc
# How it was run: as §1
# Gal(b1-4)GlcNAc6P = target: Gal(b1-4)GlcNAc6P
# How it was run: as §1
# Gal(b1-6)Gal = target: Gal(b1-6)Gal
# How it was run: as §1
# Gal3S(b1-3)GalNAc = target: Gal3S(b1-3)GalNAc
# How it was run: as §1
# Gal3S(b1-3)GlcNAc = target: Gal3S(b1-3)GlcNAc
# How it was run: as §1
binder,measurement,setting,value
MUB70 (Lactobacillus reuteri) (protein) CVHVQYIDGETDQMLRQDDLDGYTDETIPYSTAEGIKKFEGDGYELFKDNFPAGEKFDNDDTNDQFYTVIF,glycan array binding signal (z-score),[1],0.176
same,glycan array binding signal (z-score),[2],0.836
same,glycan array binding signal (z-score),[3],0.322
same,glycan array binding signal (z-score),[4],0.479
same,glycan array binding signal (z-score),[5],2.07
same,glycan array binding signal (z-score),[6],-0.162
same,glycan array binding signal (z-score),[7],2.37
same,glycan array binding signal (z-score),[8],0.453
same,glycan array binding signal (z-score),[9],0.501
same,glycan array binding signal (z-score),[10],0.295
same,glycan array binding signal (z-score),[11],-0.485
same,glycan array binding signal (z-score),[12],0.845
same,glycan array binding signal (z-score),[13],0.771
same,glycan array binding signal (z-score),[14],0.029
same,glycan array binding signal (z-score),[15],-0.071
same,glycan array binding signal (z-score),[16],0.301
same,glycan array binding signal (z-score),[17],-0.577
same,glycan array binding signal (z-score),[18],-0.067
same,glycan array binding signal (z-score),[19],-0.158
same,glycan array binding signal (z-score),Gal(b1-4)GlcNAc6P,0.022
same,glycan array binding signal (z-score),Gal(b1-6)Gal,-0.211
same,glycan array binding signal (z-score),Gal3S(b1-3)GalNAc,0.144
same,glycan array binding signal (z-score),Gal3S(b1-3)GlcNAc,-0.351

# 2 entries picked at random from those above, as already listed:
binder,measurement,setting,value
MUB70 (Lactobacillus reuteri) (protein) CVHVQYIDGETDQMLRQDDLDGYTDETIPYSTAEGIKKFEGDGYELFKDNFPAGEKFDNDDTNDQFYTVIF,glycan array binding signal (z-score),Gal3S(b1-3)GlcNAc,-0.351
same,glycan array binding signal (z-score),[3],0.322
